These are literature values, as cited in patent publication US7862836B2, “Phosphorus binder for treatment of kidney disease” (Biolink Life Sciences, Inc., priority 2005, dated 2011).

Read-outs that look alike come from different tables or passages of the source.

The conditions of this series: cited from earlier work; for Fractional calcium absorption / 10-h urinary calcium excretion: mean ± SE.

For the substance Magnesium Acetate, the “Net calcium absorption from the standard meal” value (increasing amounts of magnesium acetate) is “unaffected”. Also, the Fractional calcium absorption is recorded as 25.9 ± 2.9% (standard meal + 10.2 mEq MgAc, eight subjects); 24.5 ± 3.7% (standard meal + 19.4 mEq MgAc); 25.4 ± 3.8% (standard meal + 39.0 mEq MgAc); 24.0 ± 4.2% (standard meal + 77.2 mEq MgAc). Also, the “10-h urinary calcium excretion” value by setting is: (standard meal + 10.2 mEq MgAc) 3.1 ± 0.6 mEq; (standard meal + 19.4 mEq MgAc) 3.3 ± 0.6 mEq; (standard meal + 39.0 mEq MgAc) 3.9 ± 0.5 mEq; (standard meal + 77.2 mEq MgAc) 4.9 ± 0.5 mEq.
